No constants are given. Whether binding was seen depends on the method and setting. In cells and extracts the contact can be indirect. Some results given as binding are weak or reduced against the parent protein; the word gives no strength. Each block holds one substance with its values, some of them ahead of it.
What was measured:
[1] = target: T1, AIMP1/p43 expressed from a plasmid in HEK 293 cells (UniProt Q12904); test: co-IP; HEK 293 cells transfected with V5-grp78 and AIMP1/p43 plasmids along with 2 or 4 µg of HCV E2 plasmid (or E1, core, NS5A); immunoprecipitation with anti-AIMP1/p43 antibody
T1 sequence: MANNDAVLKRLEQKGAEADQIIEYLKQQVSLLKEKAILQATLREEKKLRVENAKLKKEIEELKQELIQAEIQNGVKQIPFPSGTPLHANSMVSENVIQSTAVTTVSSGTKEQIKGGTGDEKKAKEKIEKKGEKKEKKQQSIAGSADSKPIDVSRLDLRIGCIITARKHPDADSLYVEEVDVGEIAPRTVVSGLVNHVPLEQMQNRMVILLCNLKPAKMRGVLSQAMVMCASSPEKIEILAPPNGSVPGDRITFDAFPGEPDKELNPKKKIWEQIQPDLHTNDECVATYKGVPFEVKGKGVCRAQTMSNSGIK

By UniProt entry, the sequences of proteins in these tests, tags left out. Chains listed by the source or under a name are the forms on record and can include a tag or linker. Residues count along the entry.
V5-tagged E1 made from core-E1 (Q99IB8, residues 192-383): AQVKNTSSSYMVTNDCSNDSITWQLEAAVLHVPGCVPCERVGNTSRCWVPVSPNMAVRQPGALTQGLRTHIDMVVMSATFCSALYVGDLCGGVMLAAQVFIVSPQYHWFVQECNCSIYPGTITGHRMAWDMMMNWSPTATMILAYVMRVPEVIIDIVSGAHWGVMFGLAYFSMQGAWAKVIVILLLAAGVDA
V5-tagged HCV E2 (2a type, JFH1) (Q99IB8, residues 384-750): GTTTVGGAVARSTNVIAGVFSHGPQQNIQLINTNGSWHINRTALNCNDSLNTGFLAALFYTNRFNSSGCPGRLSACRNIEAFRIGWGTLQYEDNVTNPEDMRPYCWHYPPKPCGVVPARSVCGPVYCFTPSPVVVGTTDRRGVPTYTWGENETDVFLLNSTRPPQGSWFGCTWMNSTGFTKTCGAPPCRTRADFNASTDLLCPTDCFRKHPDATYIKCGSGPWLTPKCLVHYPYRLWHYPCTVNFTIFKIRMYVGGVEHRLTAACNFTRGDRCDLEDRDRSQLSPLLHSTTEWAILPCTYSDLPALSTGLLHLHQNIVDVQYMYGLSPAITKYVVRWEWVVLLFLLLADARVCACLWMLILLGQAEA
UniProt P11021, residues 19-654: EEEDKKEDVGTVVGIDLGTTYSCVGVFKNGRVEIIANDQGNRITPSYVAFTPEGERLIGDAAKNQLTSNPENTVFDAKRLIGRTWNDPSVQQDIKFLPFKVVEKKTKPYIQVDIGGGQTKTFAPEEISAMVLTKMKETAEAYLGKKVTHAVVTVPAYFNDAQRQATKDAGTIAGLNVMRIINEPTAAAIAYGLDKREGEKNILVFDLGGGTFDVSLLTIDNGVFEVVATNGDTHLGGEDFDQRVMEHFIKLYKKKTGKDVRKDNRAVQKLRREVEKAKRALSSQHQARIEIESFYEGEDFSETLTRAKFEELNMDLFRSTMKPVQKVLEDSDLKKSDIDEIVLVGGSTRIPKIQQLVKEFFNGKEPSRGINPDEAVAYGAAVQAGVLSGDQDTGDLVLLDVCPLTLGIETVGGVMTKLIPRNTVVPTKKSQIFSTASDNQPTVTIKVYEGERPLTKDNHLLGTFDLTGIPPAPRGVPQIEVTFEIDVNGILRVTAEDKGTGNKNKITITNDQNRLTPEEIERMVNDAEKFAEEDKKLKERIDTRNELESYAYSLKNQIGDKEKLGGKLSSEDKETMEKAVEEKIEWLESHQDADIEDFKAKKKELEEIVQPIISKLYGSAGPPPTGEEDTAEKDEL

[2] = target: T2, cellular AIMP1/p43 in HEK 293 cells (human (endogenous in HEK 293)) (UniProt Q12904); test: co-IP; transfected HEK 293 cells lysed in RIPA buffer after 36 hours; 2 µg antibody, 4°C, protein G; IgG as control; western blot
T2 sequence: T1 sequence

[3] = target: T1, AIMP1/p43 expressed from a plasmid in HEK 293 cells; test: proximity ligation; HEK293 cells transfected with V5-tagged E2 and AIMP1/p43 plasmids, fixed after 24 hours; Duolink in situ kit; anti-V5 and anti-AIMP1/p43 primary antibodies
[4] = target: T1, AIMP1/p43 expressed from a plasmid in HEK 293 cells; test: co-IP; transfected HEK 293 cells lysed in RIPA buffer after 36 hours; 2 µg antibody, 4°C, protein G; IgG as control; western blot

Substance: HCV E2 co-expressed with grp78 and AIMP1/p43 (from UniProt Q99IB8 384-750)
binding [1]: binds

Substance: V5-tagged E1 made from core-E1 (from UniProt Q99IB8 192-383)
binding [2]: no binding

Substance: V5-tagged HCV E2 (2a type, JFH1) (from UniProt Q99IB8 384-750)
binding [2]: binds
binding [3]: binds

binding [4]: binds
Substance: V5-tagged grp78 (from UniProt P11021 19-654)

Source: paper PMC4015952
